Results: paper PMC7974539
No constants are given. Whether binding was seen depends on the method and setting. In cells and extracts the contact can be indirect. Some entries that bind do so weakly or less than the wild type.

Chains of the proteins cited; added tags and fusions are not shown.
UniProt Q93009: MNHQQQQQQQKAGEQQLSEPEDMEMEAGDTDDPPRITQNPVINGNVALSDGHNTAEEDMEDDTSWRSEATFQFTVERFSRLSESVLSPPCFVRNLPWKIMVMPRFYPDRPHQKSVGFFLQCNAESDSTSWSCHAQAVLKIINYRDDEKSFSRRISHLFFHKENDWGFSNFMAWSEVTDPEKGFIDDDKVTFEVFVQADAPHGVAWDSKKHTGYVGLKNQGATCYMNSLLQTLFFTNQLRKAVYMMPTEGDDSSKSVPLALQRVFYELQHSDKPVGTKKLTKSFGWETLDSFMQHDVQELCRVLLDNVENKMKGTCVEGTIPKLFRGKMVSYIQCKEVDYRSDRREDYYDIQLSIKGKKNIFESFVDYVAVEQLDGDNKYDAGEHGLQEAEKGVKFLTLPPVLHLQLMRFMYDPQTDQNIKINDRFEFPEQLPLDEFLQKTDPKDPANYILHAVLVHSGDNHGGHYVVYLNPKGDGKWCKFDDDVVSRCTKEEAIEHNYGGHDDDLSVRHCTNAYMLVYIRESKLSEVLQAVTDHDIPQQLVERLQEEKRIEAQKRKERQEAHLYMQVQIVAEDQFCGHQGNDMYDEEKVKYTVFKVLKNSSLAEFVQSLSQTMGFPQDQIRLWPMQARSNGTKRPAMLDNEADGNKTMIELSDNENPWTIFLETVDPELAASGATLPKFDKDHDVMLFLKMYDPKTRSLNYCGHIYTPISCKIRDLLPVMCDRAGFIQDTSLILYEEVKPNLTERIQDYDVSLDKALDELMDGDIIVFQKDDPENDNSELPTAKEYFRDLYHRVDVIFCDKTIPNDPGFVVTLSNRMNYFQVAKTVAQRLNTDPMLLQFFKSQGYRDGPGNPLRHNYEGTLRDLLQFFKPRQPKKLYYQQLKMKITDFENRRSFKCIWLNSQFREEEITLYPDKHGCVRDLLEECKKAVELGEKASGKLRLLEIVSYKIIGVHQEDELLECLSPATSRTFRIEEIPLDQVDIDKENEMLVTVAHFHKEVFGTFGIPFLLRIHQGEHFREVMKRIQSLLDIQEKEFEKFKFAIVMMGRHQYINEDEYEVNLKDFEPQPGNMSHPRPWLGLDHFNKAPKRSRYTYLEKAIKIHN
UniProt Q4VSI4: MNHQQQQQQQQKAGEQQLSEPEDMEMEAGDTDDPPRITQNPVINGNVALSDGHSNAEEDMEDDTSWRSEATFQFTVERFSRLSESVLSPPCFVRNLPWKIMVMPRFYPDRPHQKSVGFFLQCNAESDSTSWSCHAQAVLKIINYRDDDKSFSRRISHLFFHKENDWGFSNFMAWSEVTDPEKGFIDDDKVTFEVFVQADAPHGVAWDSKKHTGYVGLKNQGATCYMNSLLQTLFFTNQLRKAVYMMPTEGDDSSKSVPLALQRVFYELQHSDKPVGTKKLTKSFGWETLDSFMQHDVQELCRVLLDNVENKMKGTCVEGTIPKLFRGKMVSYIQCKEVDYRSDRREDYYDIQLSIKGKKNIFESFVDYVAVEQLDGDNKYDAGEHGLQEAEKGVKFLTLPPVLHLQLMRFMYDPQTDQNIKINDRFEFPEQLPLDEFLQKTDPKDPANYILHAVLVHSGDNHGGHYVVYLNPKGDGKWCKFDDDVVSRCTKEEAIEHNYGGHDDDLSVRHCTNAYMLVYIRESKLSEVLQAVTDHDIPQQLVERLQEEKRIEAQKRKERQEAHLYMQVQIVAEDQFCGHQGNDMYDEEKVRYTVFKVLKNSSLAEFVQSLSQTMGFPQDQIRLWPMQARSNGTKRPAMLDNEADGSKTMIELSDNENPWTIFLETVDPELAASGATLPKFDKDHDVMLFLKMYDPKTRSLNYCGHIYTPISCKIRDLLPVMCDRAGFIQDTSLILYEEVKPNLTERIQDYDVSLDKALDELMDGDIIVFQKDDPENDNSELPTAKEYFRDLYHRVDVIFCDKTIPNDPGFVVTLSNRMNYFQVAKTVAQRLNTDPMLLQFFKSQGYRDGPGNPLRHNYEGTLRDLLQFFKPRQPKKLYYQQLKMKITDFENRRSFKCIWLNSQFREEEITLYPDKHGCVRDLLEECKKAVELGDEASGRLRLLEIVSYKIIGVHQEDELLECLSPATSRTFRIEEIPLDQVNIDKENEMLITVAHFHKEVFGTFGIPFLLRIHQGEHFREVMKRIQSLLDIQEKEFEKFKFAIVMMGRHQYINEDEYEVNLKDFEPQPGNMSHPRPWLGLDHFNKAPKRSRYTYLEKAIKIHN

T1: NEK2, endogenous in GH3 and MMQ cells (rat (endogenous in GH3 and MMQ)) (UniProt G3V6L2)
T1 sequence: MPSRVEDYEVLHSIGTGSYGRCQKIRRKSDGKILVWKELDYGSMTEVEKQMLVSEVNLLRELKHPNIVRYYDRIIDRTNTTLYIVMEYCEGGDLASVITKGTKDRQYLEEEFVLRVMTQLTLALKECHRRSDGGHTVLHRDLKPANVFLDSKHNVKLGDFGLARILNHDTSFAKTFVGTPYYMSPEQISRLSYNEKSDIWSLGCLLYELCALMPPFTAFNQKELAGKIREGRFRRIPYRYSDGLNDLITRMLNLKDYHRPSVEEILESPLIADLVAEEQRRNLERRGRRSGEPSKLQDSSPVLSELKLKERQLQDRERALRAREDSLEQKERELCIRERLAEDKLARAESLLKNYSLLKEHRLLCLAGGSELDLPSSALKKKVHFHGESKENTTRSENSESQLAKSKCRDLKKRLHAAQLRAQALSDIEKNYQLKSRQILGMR


Key:
[1] = molecular target: T1, NEK2, endogenous in GH3 and MMQ cells (rat (endogenous in GH3 and MMQ)); assay: co-IP; endogenous proteins; NEK2 immunoprecipitated from GH3 and MMQ cells with anti-NEK2 or IgG antibody
[2] = molecular target: USP7 (ubiquitin-specific peptidase 7), transfected in HEK293T cells (UniProt Q93009); assay: co-IP; transiently transfected HEK293T cells; lysate subjected to IP with anti-FLAG M2 affinity resin overnight at 4 °C, eluted with 3x Flag-peptide; immunoblotting

Row | binding [1] | binding [2] | Molecule
1 | binds | – | USP7, endogenous in GH3 and MMQ cells (from UniProt Q4VSI4 1-1103) (enzyme)
2 | – | binds | NEK2 (never in mitosis-related kinase 2) in transiently transfected HEK293T cells (enzyme, UniProt P51955 1-445) MPSRAEDYEVLYTIGTGSYGRCQKIRRKSDGKILVWKELDYGSMTEAEKQMLVSEVNLLRELKHPNIVRYYDRIIDRTNTTLYIVMEYCEGGDLASVITKGTKERQYLDEEFVLRVMTQLTLALKECHRRSDGGHTVLHRDLKPANVFLDGKQNVKLGDFGLARILNHDTSFAKTFVGTPYYMSPEQMNRMSYNEKSDIWSLGCLLYELCALMPPFTAFSQKELAGKIREGKFRRIPYRYSDELNEIITRMLNLKDYHRPSVEEILENPLIADLVADEQRRNLERRGRQLGEPEKSQDSSPVLSELKLKEIQLQERERALKAREERLEQKEQELCVRERLAEDKLARAENLLKNYSLLKERKFLSLASNPELLNLPSSVIKKKVHFSGESKENIMRSENSESQLTSKSKCKDLKKRLHAAQLRAQALSDIEKNYQLKSRQILGMR
